Here are results for 58 compounds from PubChem BioAssay AID2685 (National Center for Advancing Translational Sciences (NCATS), 2010).

The assay in a line: qHTS Assay for Lipid Storage Modulators in Drosophila S3 Cells.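 On cell number change: cells counted by Cell Tracker Red CMTPX staining in the red channel.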 Particulars: BODIPY lipid droplet fluorescence, 18-24 h; for cell number change: measured here: cell count max response, cells fed with added oleic acid. In a few lines: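 Drosophila S3 cells loaded with oleic acid (400 uM, as added) and compounds at several concentrations; lipid droplets imaged by 488-nm laser-scanning cytometry, 500–530 nm intensity and object ratio to cell channel. Percent activity normalized to 20 uM Triacsin C.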
In general terms: Quantitative high-throughput screening tests each substance at several concentrations.

Setting [1] is: measured here: lipid fluorescence (Fed channel) AC50, cells fed with added oleic acid.
Setting [2] is: measured here: cell number channel AC50, cells fed with added oleic acid.

The list shows a part of the results. Shown are side measurements of this screen, not its main read-out; they come without a call. Compounds called inactive in the main read-out are mostly missing here. The note in brackets gives the kind of curve behind each potency; many fits are weak. Where a SMILES comes first, the peptide text is derived from it. The star is where a group is joined. OBn = c1ccc(CO*)cc1

Usually AC50 stands for the concentration at which the activity in the assay is half-maximal. Low readings indicate greater potency, high ones weaker potency. Turning to `CCOc1ccc(NC(=O)CN(C)C(=O)CCSc2ccc(F)cc2)cc1OCC`, the cell number change is 13.9%. Also, under setting [1], the half-maximal activity concentration (AC50) was 0.0058 µM [falling, full curve, poor fit].

On to `CCOC(=O)Nc1ccc2c(COC(=O)c3ccccc3O)cc(=O)oc2c1`, for which the cell number change turned out to be 0.451%.

Regarding `O=C(NCCc1c[nH]c2ccccc12)C(=O)NCC(c1cccnc1)N1CCN(c2ccccc2)CC1` (stereo not drawn), the cell number change is -6.41%. In addition, the AC50 under setting [2] was 0.326 µM [rising, partial curve, poor fit].

Take `COc1cc(NS(=O)(=O)c2ccc(NC(=O)/C(=C/c3ccccc3Cl)NC(=O)c3ccccc3)cc2)nc(OC)n1`: the cell number change was -33.7%. Further, under setting [2], the AC50 was 8.2 µM [falling, partial curve, poor fit]. Besides, the AC50 under setting [1] was 8.2 µM [falling, partial curve].

Consider `CC(=O)Nc1ccc(CN2CCC(n3nccc3NC(=O)CCc3ccccc3)CC2)cc1`, for which the cell number change was -3.4%. Further, the AC50 under setting [1] is 1.3 µM [falling, partial curve].

`COc1cccc(N2CCN(C(=O)CCCCCn3c(=S)[nH]c4cc5c(cc4c3=O)OCO5)CC2)c1`: the cell number change was -28.3%. The AC50 under setting [1] was 4.61 µM [falling, partial curve].

As for `C/C(=N\NC(=O)c1ccc2c(c1)OCO2)c1ccco1`, the cell number change was -31.8%. In addition, the AC50 under setting [2] was 18.4 µM [falling, single point]. For the same compound, under setting [1], the AC50 is 29.1 µM [falling, single point].

`O=C(Nc1ccc(Nc2ccccc2)cc1)c1cccc(F)c1`: the cell number change was -42.3%. For the same compound, under setting [2], the concentration at half-maximal activity (AC50) was 10.3 µM [falling, partial curve, poor fit]. In addition, the AC50 under setting [1] was 29.1 µM [falling, single point].

Take `N#Cc1c(NC(=O)CSc2ncnc3c2cnn3-c2ccccc2Cl)sc2c1CCCC2`: the cell number change was -17.1%. The AC50 under setting [1] is 11.6 µM [rising, partial curve].

As to `Cc1cnnn1-c1cccc([N+](=O)[O-])c1`, the cell number change was -23.5%.

As for `CCCCN(CC)C(=O)Cc1c(C(=O)O)[nH]c2ccc(Cl)cc12`, the cell number change is -13.2%. Moreover, under setting [1], the AC50 was 23.1 µM [falling, partial curve, poor fit].

On to `Cc1ccc(C(=O)N2CCN=C2SCc2ccc([N+](=O)[O-])cc2)cc1C`, for which the cell number change was determined as 32.9%. Further, the AC50 under setting [2] is 4.61 µM [rising, partial curve].

In the case of `O=C(CNC(=O)c1cc2c(n(-c3ccccc3)c1=O)CCCC2=O)c1ccccc1`, the cell number change is -34.6%. The concentration at half-maximal activity (AC50) under setting [2] is 29.1 µM [falling, single point]. The AC50 under setting [1] is 7.31 µM [falling, partial curve, poor fit].

As for `Cc1nn(C)c(C(=O)NNC(=S)NCC(C)C)c1Cl`, the cell number change is -13.6%. Moreover, under setting [1], the AC50 is 0.082 µM [falling, single point].

Turning to `N#Cc1c(N)nc(N)nc1Nc1ccc(Br)cc1`, the cell number change is 17.4%. The AC50 under setting [1] was 18.4 µM [falling, single point].

Turning to `C/C(=N/NC(=O)CNC(=O)COc1ccccc1)c1ccc(Cl)cc1`, the cell number change is -10.1%. In addition, the AC50 under setting [1] was 23.1 µM [falling, single point].

On to `O=C(O)c1cc(N=Cc2c(O)c3ccccc3oc2=O)ccc1O`, for which the cell number change turned out to be 54.2%. Also, the half-maximal activity concentration (AC50) under setting [2] is 1.3 µM [rising, partial curve, poor fit]. For the same compound, the AC50 under setting [1] is 0.231 µM [rising, full curve].

On to `CCOC(=O)CC(=O)CSc1nnc2sc3ccccc3n12`, for which the cell number change was 27.4%. Also, the AC50 under setting [1] is 1.46 µM [rising, partial curve].

Consider `CCOc1ccccc1NC(=O)COC(=O)c1ccc2ccccc2n1`, for which the AC50 is, setting by setting: under setting [2], 7.31 µM [falling, partial curve]; under setting [1], 0.651 µM [falling, single point].

Take `Cc1c(Cl)cccc1NC(=O)COC(=O)CN1C(=O)NC(C)(C)C1=O`: the cell number change stood at 8.67%. Besides, under setting [1], the concentration at half-maximal activity (AC50) was 29.1 µM [rising, single point].

For the compound `CCC(=O)Nc1ccc(C(=O)COC(=O)Cc2ccsc2)cc1`, the cell number change was -29.9%. Further, the concentration at half-maximal activity (AC50) under setting [1] was 0.116 µM [falling, full curve].

As for `CC(C)(C)c1ccc(-n2ncc3c2CCCC3NC(=O)CN2CCCC2=O)cc1` (stereo not drawn), the cell number change was -55.9%. Further, the AC50 under setting [2] was 13 µM [falling, partial curve]. Under setting [1], the AC50 was 11.6 µM [falling, single point].

Turning to `CCCCn1ccc(=O)c2c(C(F)(F)F)nccc21`, the cell number change was -7.4%. Also, the concentration at half-maximal activity (AC50) under setting [1] is 0.092 µM [falling, full curve, poor fit].

In the case of `Nc1nnn(CC(=O)N/N=C/c2ccncc2)n1`, the cell number change came to 32.9%. For the same compound, the AC50 under setting [2] is 0.058 µM [rising, full curve, poor fit].

With `O=C(NCc1cccnc1)C1CCCN1S(=O)(=O)c1ccc(Cl)cc1` (stereo not drawn), the cell number change is -11.3%.

In the case of `COc1cccc(CC2(CO)CCN(Cc3cnc(N4CCOCC4)s3)CC2)c1`, the cell number change came out at 23.5%.

For `Cc1cc(C)n(-c2cccc(CN3CCC(CO)(Cc4ccccc4)CC3)c2)n1`, the cell number change is 7.78%. Further, the AC50 under setting [1] was 7.31 µM [rising, partial curve, poor fit].

Take `CCN1/C(=C/c2cccc[n+]2C)Sc2ccc(OC)cc21`: the cell number change stood at 52.8%. The AC50 under setting [2] is 18.4 µM [rising, partial curve, poor fit]. Besides, the AC50 under setting [1] was 0.58 µM [rising, single point].

On to `Cc1cc(=O)[nH]c(Nc2cccc(Br)c2)n1`, for which the cell number change is -17.6%. The AC50 under setting [1] is 20.6 µM [falling, single point].

`CC1Cc2ccccc2N1CC(=O)NC(=O)NC(C)(C)C` (stereo not drawn): the cell number change turned out to be 8.08%. Further, under setting [1], the AC50 is 6.51 µM [falling, single point].

With `Cc1ccc(OCC(=O)N2CCN(S(=O)(=O)c3ccc(Cl)s3)CC2)cc1C`, the cell number change was -44.7%. The AC50 under setting [2] is 5.17 µM [falling, full curve, poor fit].

For `N=c1c(C(=O)NCc2ccco2)cc2c(=O)n3ccccc3nc2n1Cc1ccc(Cl)cc1`, the AC50 under setting [1] is 3.66 µM [rising, single point].

In the case of `O=C(Nc1ccc(S(=O)(=O)N2CCCC2)cc1)c1cccnc1`, the cell number change is 64.5%. Besides, the AC50 under setting [2] was 11.6 µM [rising, partial curve].

On to `CC(C)(C)C1(C)OC(C(=O)NC2CCCCC2)C(C(=O)NC2CCCCC2)O1` (stereo not drawn), for which the cell number change is -9.81%.

For the compound `COc1ccc(C(=O)N2CCC(C(=O)O)CC2)cc1`, the cell number change turned out to be 12.7%.

Regarding `Cc1c(Cl)cccc1Nc1nc(NCCO)c2ccccc2n1`, the cell number change is -30.9%. Besides, the concentration at half-maximal activity (AC50) under setting [2] is 20.6 µM [falling, single point]. For the same compound, the AC50 under setting [1] was 6.51 µM [rising, single point].

Take `COC(=O)[C@H](Cc1ccccc1)NC(=O)[C@@H](N)CC(=O)OCc1ccccc1` (H-Asp(OBn)-Phe-OMe): the cell number change amounted to 27.6%.

For `COc1cccc(CNc2nnnn2C)c1`, the cell number change was -7.43%.

`Cc1c(C)c2c(OCC(=O)N3CCC(C(N)=O)CC3)cc3c(c2oc1=O)CCC(C)(C)O3`: the cell number change came out at 5.61%. The AC50 under setting [1] was 0.92 µM [falling, full curve].

As to `CCCOCCOC(=O)c1[nH]c2c(c1C)C(=O)CC(c1cc(OC)ccc1OC)C2` (stereo not drawn), the cell number change is -13.4%. Also, under setting [1], the AC50 is 20.6 µM [falling, single point].

Take `COc1cc(CNCCCO)ccc1OCC(=O)NC(C)(C)C`: the cell number change is -44.9%. In addition, the AC50 under setting [2] was 29.1 µM [falling, single point]. Also, the AC50 under setting [1] was 32.6 µM [falling, single point].

As to `C[C@H]1CCC(=O)N([C@H](CN=[N+]=[N-])Cc2ccccc2)CC1`, the cell number change was -3.88%.

In the case of `COc1cc(OC)c(C(=O)Nc2cccnc2)cc1OC`, the cell number change was -8.99%. Further, under setting [1], the AC50 was 29.1 µM [falling, single point].

Consider `Cn1c(=O)c2c(ncn2CCCC(=N)N2CCOCC2)n(C)c1=O`, for which the cell number change is -36.3%. Also, the AC50 under setting [2] is 10.3 µM [falling, partial curve]. Moreover, under setting [1], the AC50 was 7.31 µM [falling, partial curve].

For the compound `CCOC(=O)N1CCN(S(=O)(=O)N2CCCC(C(=O)NC(C)c3ccccc3)C2)CC1` (stereo not drawn), the cell number change was 1.71%.

Turning to `Cc1cnc(CN(C)C(=O)CC2C(=O)NCCN2Cc2cccc(F)c2F)[nH]1` (stereo not drawn), the cell number change came out at 2.93%.

Turning to `O=C(Nc1nn[nH]n1)c1ccc(S(=O)(=O)N2CCCCC2)cc1`, the cell number change was -9.36%. In addition, the AC50 under setting [2] was 0.116 µM [falling, full curve, poor fit].

Regarding `O=c1c2c3c(sc2n(CCN2CCCCC2)c(=O)n1Cc1ccco1)CCCCC3`, the cell number change worked out at 113%. In addition, the AC50 under setting [2] is 5.17 µM [rising, partial curve]. Also, under setting [1], the AC50 was 2.31 µM [rising, partial curve].

`CCn1c(SCC(=O)Nc2ccccc2Br)nnc1-c1cnccn1`: the concentration at half-maximal activity (AC50) under setting [1] was 3.26 µM [rising, single point].

Turning to `O=C(Cc1ccccc1)N/N=C/c1ccc(Cl)cc1Cl`, the cell number change is -50.2%. For the same compound, under setting [2], the AC50 is 20.6 µM [falling, partial curve]. Under setting [1], the half-maximal activity concentration (AC50) is 20.6 µM [falling, partial curve].

As to `CCNC(=O)N1CCCC(C(=O)c2ccc(OC)c(OC)c2)C1` (stereo not drawn), the cell number change is -25.5%. In addition, the AC50 under setting [1] was 14.6 µM [falling, partial curve, poor fit].

In the case of `COc1ccc(Cc2nnc(Nc3ccccc3)s2)cc1Br`, the cell number change is -12.5%. Moreover, the AC50 under setting [1] is 29.1 µM [rising, single point].

With `COc1ccc(/C=C/c2cc(-c3ccc(C)cc3)o[n+]2C)cc1`, the cell number change was -63.8%. Further, under setting [2], the AC50 is 10.3 µM [falling, partial curve]. The half-maximal activity concentration (AC50) under setting [1] was 8.2 µM [falling, partial curve].

As for `CC1=Nn2c(nnc2-c2ccccc2)SC1`, the cell number change is 41%. Further, the AC50 under setting [2] was 11.6 µM [rising, partial curve, poor fit]. In addition, under setting [1], the concentration at half-maximal activity (AC50) is 16.4 µM [rising, partial curve].

In the case of `Cc1ccc(-c2noc(/C=C/c3ccccc3)n2)cc1`, the cell number change turned out to be 38%. Under setting [2], the AC50 is 9.2 µM [rising, partial curve, poor fit]. The AC50 under setting [1] is 1.3 µM [rising, full curve].

Take `Cc1nnc(SCc2ccc3c(c2)OCO3)s1`: the cell number change is -5.54%. Moreover, the AC50 under setting [1] is 0.00461 µM [rising, full curve, poor fit].

Take `C=CCOc1ccc(/C=C/C(C)=N\O)cc1`: the cell number change was -32.4%. Further, the AC50 under setting [2] is 32.6 µM [falling, single point].

For the compound `CCOC(=O)c1ccc(-n2c(C)nc3c(cnn3-c3ccc(Cl)cc3)c2=O)cc1`, the AC50 is, setting by setting: under setting [2], 1.64 µM [rising, partial curve, poor fit]; under setting [1], 3.26 µM [rising, partial curve].
